Data published in publication PMC6967093.
These are yes or no findings as the source states them, for the method shown. In cells and extracts the contact can be indirect. Some entries that bind do so weakly or less than the wild type.

Sequences of proteins named here, by UniProt entry; tags and fusion partners are left off.
UniProt P01106: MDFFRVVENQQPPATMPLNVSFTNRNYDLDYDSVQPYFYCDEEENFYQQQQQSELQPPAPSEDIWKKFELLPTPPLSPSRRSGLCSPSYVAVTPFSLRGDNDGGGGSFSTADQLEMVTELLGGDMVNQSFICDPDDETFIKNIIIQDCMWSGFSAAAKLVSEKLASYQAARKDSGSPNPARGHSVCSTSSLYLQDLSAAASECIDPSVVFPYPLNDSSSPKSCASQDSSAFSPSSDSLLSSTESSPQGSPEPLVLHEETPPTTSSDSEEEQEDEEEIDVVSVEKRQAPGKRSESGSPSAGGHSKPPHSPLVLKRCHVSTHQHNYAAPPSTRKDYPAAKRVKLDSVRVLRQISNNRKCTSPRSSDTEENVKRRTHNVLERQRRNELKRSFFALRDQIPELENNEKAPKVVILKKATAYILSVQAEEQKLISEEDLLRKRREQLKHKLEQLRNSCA
UniProt Q96DH6: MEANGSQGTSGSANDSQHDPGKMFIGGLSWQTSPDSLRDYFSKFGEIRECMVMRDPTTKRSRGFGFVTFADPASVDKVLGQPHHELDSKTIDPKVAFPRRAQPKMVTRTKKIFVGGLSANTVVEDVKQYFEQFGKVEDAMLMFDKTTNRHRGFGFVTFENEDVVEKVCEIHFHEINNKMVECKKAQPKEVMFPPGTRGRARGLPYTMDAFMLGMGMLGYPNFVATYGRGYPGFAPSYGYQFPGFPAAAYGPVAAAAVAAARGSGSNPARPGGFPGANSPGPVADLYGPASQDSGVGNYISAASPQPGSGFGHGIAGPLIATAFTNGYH

How the values were obtained:
[1] = target: T1, ZEB1 (human (endogenous in AsPC-1 and BxPC-3)) (UniProt P37275); experiment: co-IP; endogenous proteins in whole lysates of AsPC-1 and BxPC-3 cells (IP lysis buffer); MSI2, ZEB1, c-Myc, pERK and IgG antibodies on magnetic beads, incubated with lysate supernatants overnight at 4 °C; Western blot with MSI2, ZEB1, pERK and c-Myc antibodies
T1 sequence: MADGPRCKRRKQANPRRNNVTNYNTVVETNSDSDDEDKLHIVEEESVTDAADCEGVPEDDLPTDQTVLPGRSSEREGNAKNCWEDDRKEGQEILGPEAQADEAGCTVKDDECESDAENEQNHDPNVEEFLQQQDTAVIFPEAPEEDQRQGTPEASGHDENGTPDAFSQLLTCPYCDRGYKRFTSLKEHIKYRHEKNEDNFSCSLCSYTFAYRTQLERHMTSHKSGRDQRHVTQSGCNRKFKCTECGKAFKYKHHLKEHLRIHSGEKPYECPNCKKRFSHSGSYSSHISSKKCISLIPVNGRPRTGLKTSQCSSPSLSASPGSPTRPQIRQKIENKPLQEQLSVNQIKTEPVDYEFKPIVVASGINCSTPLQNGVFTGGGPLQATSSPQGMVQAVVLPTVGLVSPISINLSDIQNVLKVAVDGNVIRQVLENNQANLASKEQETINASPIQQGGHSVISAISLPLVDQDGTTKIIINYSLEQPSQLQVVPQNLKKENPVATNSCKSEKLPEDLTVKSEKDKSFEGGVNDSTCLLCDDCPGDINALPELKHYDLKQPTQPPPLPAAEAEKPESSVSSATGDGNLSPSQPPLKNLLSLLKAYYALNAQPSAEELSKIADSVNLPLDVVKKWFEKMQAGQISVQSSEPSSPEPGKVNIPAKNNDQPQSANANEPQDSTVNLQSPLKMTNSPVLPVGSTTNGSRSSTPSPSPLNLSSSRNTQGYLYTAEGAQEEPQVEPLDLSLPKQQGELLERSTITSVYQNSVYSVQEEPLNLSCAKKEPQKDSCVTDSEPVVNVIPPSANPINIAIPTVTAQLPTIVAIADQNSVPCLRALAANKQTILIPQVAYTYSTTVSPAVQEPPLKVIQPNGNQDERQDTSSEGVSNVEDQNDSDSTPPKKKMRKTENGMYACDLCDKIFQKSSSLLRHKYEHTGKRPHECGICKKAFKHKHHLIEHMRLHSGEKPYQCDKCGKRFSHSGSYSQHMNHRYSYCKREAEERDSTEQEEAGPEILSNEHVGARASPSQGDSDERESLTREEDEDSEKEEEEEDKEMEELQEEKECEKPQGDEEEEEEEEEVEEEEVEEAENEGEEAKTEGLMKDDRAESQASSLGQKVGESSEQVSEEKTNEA

[2] = target: c-Myc (human (endogenous in AsPC-1 and BxPC-3)) (UniProt P01106); experiment: as above

binding [1]: binds | binding [2]: binds
Substance: Musashi RNA-binding protein 2 (from UniProt Q96DH6 1-328)
